In article PMC6523024:
Results are given in words; binding and its absence hold for the method and conditions named. In cells and extracts the contact can be indirect. Some results given as binding are weak or reduced against the parent protein; the word gives no strength. Tags and fused reporters may be left off the sequences shown.

Protein sequences, listed by entry. Tags and fused reporters are not part of them. Residues count along the entry.
UniProt Q9QUN7, residues 25-784: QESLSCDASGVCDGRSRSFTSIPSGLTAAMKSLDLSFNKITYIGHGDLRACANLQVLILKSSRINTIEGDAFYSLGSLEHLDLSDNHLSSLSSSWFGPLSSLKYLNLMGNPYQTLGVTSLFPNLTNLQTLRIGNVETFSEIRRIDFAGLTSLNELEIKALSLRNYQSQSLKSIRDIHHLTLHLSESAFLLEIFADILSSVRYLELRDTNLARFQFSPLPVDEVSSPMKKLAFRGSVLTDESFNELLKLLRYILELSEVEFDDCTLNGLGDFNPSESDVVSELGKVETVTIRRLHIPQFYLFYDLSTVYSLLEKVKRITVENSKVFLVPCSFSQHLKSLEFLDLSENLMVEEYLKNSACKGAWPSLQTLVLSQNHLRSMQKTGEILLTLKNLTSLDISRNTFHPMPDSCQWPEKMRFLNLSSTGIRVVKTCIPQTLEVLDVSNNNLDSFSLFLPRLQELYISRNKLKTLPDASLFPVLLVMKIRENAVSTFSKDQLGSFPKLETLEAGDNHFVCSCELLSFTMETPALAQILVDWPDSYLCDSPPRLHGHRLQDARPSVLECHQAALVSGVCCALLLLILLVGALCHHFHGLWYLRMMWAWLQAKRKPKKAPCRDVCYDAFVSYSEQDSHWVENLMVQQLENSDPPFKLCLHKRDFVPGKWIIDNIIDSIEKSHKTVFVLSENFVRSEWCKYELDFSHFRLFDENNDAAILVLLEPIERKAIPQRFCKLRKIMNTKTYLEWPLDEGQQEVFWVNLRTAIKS
UniProt Q9QUK6, residues 26-835: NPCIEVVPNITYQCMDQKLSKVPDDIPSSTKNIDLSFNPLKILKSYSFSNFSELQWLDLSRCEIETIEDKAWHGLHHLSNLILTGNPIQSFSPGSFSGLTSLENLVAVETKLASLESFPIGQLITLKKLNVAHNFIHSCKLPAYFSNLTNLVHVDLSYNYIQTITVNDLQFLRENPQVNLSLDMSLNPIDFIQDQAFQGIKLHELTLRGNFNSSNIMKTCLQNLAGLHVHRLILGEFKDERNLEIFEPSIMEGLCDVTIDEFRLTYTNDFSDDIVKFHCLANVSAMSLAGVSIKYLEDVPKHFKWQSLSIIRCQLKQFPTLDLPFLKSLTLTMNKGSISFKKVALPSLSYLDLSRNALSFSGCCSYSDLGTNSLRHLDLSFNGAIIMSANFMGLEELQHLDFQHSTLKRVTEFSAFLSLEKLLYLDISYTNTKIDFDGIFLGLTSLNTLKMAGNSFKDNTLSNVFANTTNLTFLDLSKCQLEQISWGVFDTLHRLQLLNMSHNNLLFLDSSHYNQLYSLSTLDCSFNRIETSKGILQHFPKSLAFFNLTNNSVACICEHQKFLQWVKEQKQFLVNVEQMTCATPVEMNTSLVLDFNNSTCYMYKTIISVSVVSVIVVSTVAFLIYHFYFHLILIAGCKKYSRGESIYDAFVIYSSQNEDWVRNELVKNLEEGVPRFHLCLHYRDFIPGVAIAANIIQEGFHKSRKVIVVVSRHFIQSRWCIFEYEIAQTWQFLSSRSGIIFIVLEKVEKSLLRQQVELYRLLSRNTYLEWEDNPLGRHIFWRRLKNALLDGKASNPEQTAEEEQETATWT

Assays:
[1] = molecular target: Toll-like receptor 2 (TLR2), mouse, endogenous (mouse (endogenous in RAW264.7)) (UniProt Q9QUN7); assay: co-IP; only the binder purified
[2] = molecular target: Toll-like receptor 4 (TLR4), mouse, endogenous (mouse (endogenous in RAW264.7 and in C57BL/6 peritoneal macrophages)) (UniProt Q9QUK6); assay: co-IP; only the binder purified

B1: ESX secretion-associated protein C (EspC) from Mycobacterium tuberculosis, His-tagged recombinant (protein, UniProt P9WJD7 1-103)
chain: MTENLTVQPERLGVLASHHDNAAVDASSGVEAAAGLGESVAITHGPYCSQFNDTLNVYLTAHNALGSSLHTAGVDLAKSLRIAAKIYSEADEAWRKAIDGLFT
binding [1]: no binding (tested: 5 μg/mL) | binding [2]: binds
